Measured values taken from the supplement of paper PMC12282887.
± gives the standard deviation of the averaged measurements. Values are raw readings; no control value is given beside them.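 The top concentration was set near the MIC for antimicrobials, at 500 µM for most other compounds, and up to 1 mM for known inducer-like compounds. Deletion strains started from a tenfold smaller inoculum, and wells growing below 10% of the overall median were treated as non-growing.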

System: Escherichia coli BW25113
Test: growth (OD600 area under curve, 8 h) (OD600 x h); higher = more growth
Procedure: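 E. coli BW25113 reporter strains (wild type, ΔmarA, ΔsoxS, Δrob, each carrying one of 8 lux reporter plasmids) were grown in 40 µl LB in 384-well plates at 37°C, 800 rpm, with each compound at 4 two-fold concentrations, in biological duplicates. Growth is the baseline-corrected OD600 area under the curve over 8 h (0-8 h WT, 1-9 h deletion strains).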

c1ccc2[nH]ccc2c1 [Indole]
growth
Settings | reporter plasmid: EVC | reporter plasmid: acrABp | reporter plasmid: marRABp | reporter plasmid: micFp | reporter plasmid: ompFp | reporter plasmid: robp | reporter plasmid: soxSp | reporter plasmid: tolCp
14.6 µg/ml, genetic background: wild type | 2.91 ± 0.31 | 2.9 ± 0.37 | 2.98 ± 0.079 | 3.24 ± 0.33 | 2.88 ± 0.25 | 3.13 ± 0.28 | 3.11 ± 0.058 | 3.09 ± 0.14
14.6 µg/ml, genetic background: ΔmarA | 3.38 ± 0.53 | 4.21 ± 0.27 | 3.44 ± 0.24 | 3.15 ± 0.66 | 3.4 ± 0.55 | 3.55 ± 0.58 | 3.05 ± 0.59 | 3.03 ± 0.39
14.6 µg/ml, genetic background: Δrob | 2.92 ± 0.38 | 2.79 ± 0.27 | 3.3 ± 0.58 | 3.24 ± 0.66 | 2.67 ± 0.2 | 2.54 ± 0.29 | 3.05 ± 0.41 | 3.2 ± 0.5
14.6 µg/ml, genetic background: ΔsoxS | 3.07 ± 0.17 | 3.09 ± 0.73 | 3.01 ± 0.56 | 2.74 ± 0.28 | 2.7 ± 0.3 | 2.75 ± 0.2 | 2.96 ± 0.13 | 3.07 ± 0.48
29.3 µg/ml, genetic background: wild type | 2.81 ± 0.31 | 2.69 ± 0.48 | 3.046 ± 0.027 | 3.13 ± 0.37 | 2.85 ± 0.31 | 3.06 ± 0.15 | 2.91 ± 0.13 | 3.1 ± 0.15
29.3 µg/ml, genetic background: ΔmarA | 3.23 ± 0.79 | 4.1 ± 0.35 | 3.37 ± 0.29 | 3.16 ± 0.93 | 3.42 ± 0.75 | 3.44 ± 0.46 | 3.05 ± 0.52 | 3.02 ± 0.51
29.3 µg/ml, genetic background: Δrob | 2.62 ± 0.61 | 2.66 ± 0.1 | 3.39 ± 0.27 | 3.08 ± 0.53 | 2.52 ± 0.29 | 2.42 ± 0.3 | 3.05 ± 0.6 | 3.2 ± 0.47
29.3 µg/ml, genetic background: ΔsoxS | 2.81 ± 0.048 | 2.82 ± 0.62 | 3.17 ± 0.7 | 2.61 ± 0.58 | 2.6 ± 0.28 | 2.92 ± 0.48 | 2.79 ± 0.3 | 3.02 ± 0.24
58.6 µg/ml, genetic background: wild type | 3.07 ± 0.13 | 3.04 ± 0.48 | 3.235 ± 0.031 | 3.07 ± 0.23 | 3.08 ± 0.21 | 3.19 ± 0.13 | 2.9968 ± 0.00092 | 3 ± 0.12
58.6 µg/ml, genetic background: ΔmarA | 3.27 ± 0.71 | 4.4 ± 0.62 | 3.92 ± 0.17 | 3.33 ± 0.72 | 3.48 ± 0.66 | 3.66 ± 0.33 | 3.01 ± 0.46 | 3.14 ± 0.26
58.6 µg/ml, genetic background: Δrob | 2.88 ± 0.77 | 3.18 ± 0.17 | 3.57 ± 0.35 | 3.15 ± 0.26 | 2.66 ± 0.043 | 2.72 ± 0.079 | 3.08 ± 0.41 | 3.28 ± 0.37
58.6 µg/ml, genetic background: ΔsoxS | 3.28 ± 0.13 | 3.3 ± 0.83 | 3.43 ± 0.69 | 2.74 ± 0.61 | 2.99 ± 0.11 | 3.38 ± 0.043 | 3.28 ± 0.075 | 3.26 ± 0.037
117.2 µg/ml, genetic background: wild type | 2.73 ± 0.082 | 2.3 ± 0.73 | 2.81 ± 0.13 | 2.59 ± 0.36 | 2.44 ± 0.31 | 2.56 ± 0.28 | 2.51 ± 0.36 | 2.89 ± 0.094
117.2 µg/ml, genetic background: ΔmarA | 3.17 ± 0.67 | 3.99 ± 0.42 | 3.317 ± 0.007 | 3.22 ± 0.5 | 3.01 ± 0.15 | 3.33 ± 0.32 | 2.58 ± 0.29 | 2.79 ± 0.041
117.2 µg/ml, genetic background: Δrob | 2.47 ± 0.97 | 2.44 ± 0.12 | 2.98 ± 0.47 | 2.7 ± 0.6 | 2.363 ± 0.022 | 2.17 ± 0.058 | 2.47 ± 0.52 | 3.04 ± 0.29
117.2 µg/ml, genetic background: ΔsoxS | 2.81 ± 0.33 | 2.62 ± 0.71 | 2.64 ± 0.72 | 2.28 ± 0.18 | 2.19 ± 0.38 | 2.34 ± 0.069 | 2.65 ± 0.41 | 3.0006 ± 0.0017

CN(C)C(=O)C(CCN1CCC(O)(c2ccc(Cl)cc2)CC1)(c1ccccc1)c1ccccc1 [Loperamide]
growth
Settings | reporter plasmid: EVC | reporter plasmid: acrABp | reporter plasmid: marRABp | reporter plasmid: micFp | reporter plasmid: ompFp | reporter plasmid: robp | reporter plasmid: soxSp | reporter plasmid: tolCp
32.1 µg/ml, genetic background: wild type | 2.65 ± 0.11 | 2.97 ± 0.11 | 3.32 ± 0.086 | 3 ± 0.5 | 2.95 ± 0.24 | 2.97 ± 0.24 | 2.84 ± 0.19 | 2.7 ± 0.21
32.1 µg/ml, genetic background: ΔmarA | 2.85 ± 0.23 | 3.97 ± 0.2 | 3.18 ± 0.049 | 2.65 ± 0.21 | 2.83 ± 0.57 | 3.23 ± 0.52 | 2.73 ± 0.31 | 2.86 ± 0.21
32.1 µg/ml, genetic background: Δrob | 2.35 ± 0.65 | 3.09 ± 0.15 | 3.44 ± 0.1 | 2.83 ± 0.46 | 2.41 ± 0.47 | 2.81 ± 0.31 | 2.61 ± 0.13 | 2.88 ± 0.28
32.1 µg/ml, genetic background: ΔsoxS | 2.49 ± 0.12 | 2.93 ± 0.73 | 3.3 ± 0.49 | 2.47 ± 0.25 | 2.7 ± 0.26 | 3.22 ± 0.12 | 2.76 ± 0.65 | 2.56 ± 0.3
64.2 µg/ml, genetic background: wild type | 2.72 ± 0.052 | 2.92 ± 0.23 | 3.21 ± 0.17 | 2.9 ± 0.12 | 2.73 ± 0.097 | 2.86 ± 0.036 | 2.71 ± 0.2 | 2.8 ± 0.18
64.2 µg/ml, genetic background: ΔmarA | 2.94 ± 0.54 | 3.395 ± 0.024 | 2.91 ± 0.15 | 2.88 ± 0.38 | 2.77 ± 0.72 | 3.21 ± 0.39 | 2.81 ± 0.34 | 2.89 ± 0.39
64.2 µg/ml, genetic background: Δrob | 2.39 ± 0.64 | 2.84 ± 0.04 | 3.393 ± 0.029 | 2.81 ± 0.24 | 2.56 ± 0.54 | 2.846 ± 0.013 | 2.5 ± 0.19 | 2.95 ± 0.34
64.2 µg/ml, genetic background: ΔsoxS | 2.59 ± 0.049 | 3.02 ± 0.64 | 3.64 ± 1 | 2.53 ± 0.14 | 2.86 ± 0.39 | 3.27 ± 0.29 | 3.01 ± 0.43 | 2.7 ± 0.26
128.4 µg/ml, genetic background: wild type | 2.9 ± 0.18 | 3.181 ± 0.0091 | 3.251 ± 0.012 | 2.88 ± 0.31 | 3.107 ± 0.023 | 3.27 ± 0.068 | 2.76 ± 0.25 | 2.8 ± 0.27
128.4 µg/ml, genetic background: ΔmarA | 2.87 ± 0.45 | 4.34 ± 0.42 | 3.34 ± 0.41 | 2.81 ± 0.24 | 3.15 ± 0.7 | 3.61 ± 0.18 | 2.89 ± 0.13 | 2.8 ± 0.48
128.4 µg/ml, genetic background: Δrob | 2.32 ± 0.93 | 2.99 ± 0.15 | 3.4 ± 0.23 | 2.84 ± 0.22 | 2.72 ± 0.41 | 2.85 ± 0.27 | 2.58 ± 0.079 | 2.85 ± 0.31
128.4 µg/ml, genetic background: ΔsoxS | 2.7 ± 0.2 | 2.96 ± 0.67 | 3.38 ± 0.47 | 2.59 ± 0.049 | 3.17 ± 0.22 | 3.75 ± 0.054 | 2.96 ± 0.7 | 2.65 ± 0.12
256.8 µg/ml, genetic background: wild type | 2.73 ± 0.12 | 1.64 ± 0.1 | 2.07 ± 0.043 | 2.44 ± 0.22 | 2.02 ± 0.083 | 2.01 ± 0.1 | 2.52 ± 0.17 | 2.58 ± 0.21
256.8 µg/ml, genetic background: ΔmarA | 2.583 ± 0.024 | 2.101 ± 0.0043 | 1.88 ± 0.083 | 2.81 ± 0.45 | 1.8 ± 0.33 | 2.57 ± 1.1 | 2.547 ± 0.019 | 2.54 ± 0.19
256.8 µg/ml, genetic background: Δrob | 2.14 ± 0.63 | 1.67 ± 0.52 | 1.99 ± 0.17 | 2.46 ± 0.29 | 1.63 ± 0.054 | 1.6 ± 0.066 | 2.35 ± 0.12 | 2.51 ± 0.089
256.8 µg/ml, genetic background: ΔsoxS | 2.57 ± 0.22 | 1.999 ± 0.0092 | 2.06 ± 0.32 | 2.27 ± 0.19 | 2.18 ± 0.11 | 1.7 ± 0.062 | 2.38 ± 0.23 | 2.57 ± 0.035
